# The whole screen tested about 53,000 sequences, of which about 3,700 (7%) were called active.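 Rule for the calls: active = gene knockdowns whose robust z-score for IL-1 alpha signal is at least 2 or at most -2, so actives lie on both sides; inactive = the rest.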 The list shows a part of the results.
# Assay: Components of the Cytosolic LPS Sensing Pathway: Gene Identification via Genome-wide siRNA Screen;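 note: robust z of the log signal after scaling to non-targeting control siRNA wells of the plate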
# Conditions: RAW264.7 macrophages, IL-1a HTRF, actives lie on both sides, screened at 100 nM (by protocol), cells primed 5 h with Pam3CSK4 first
# Procedure, shortened: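 Mouse macrophage line RAW264.7 is transfected with siRNA (100 nM final), grown 48h, primed with TLR ligand Pam3CSK4 5 h and given intracellular LipidA 24 h. IL-1a in supernatant is read by HTRF and viability by luminescence.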
row,Sequence,z-score
1,GGGAAAAGUUUUAAAGAGCTT against Il31ra,inactive: 0.00281
2,GGCAGAGAGUCUACAUAUGTT against Bcar3,inactive: -0.272
3,GCAAUUUGCUCAUCUCUAATT against Dcc,inactive: 1.89
4,GGUCACUCAGAAUAAUGCUTT against Lyrm4,inactive: 0.755
5,GGCUAUAACCAGCCUCAUGTT against Tmem220,inactive: -1.37
6,GAUCUUCACCAAUAAGUGUTT against Zfand2b,inactive: 0.367
7,GGUUACUCCUUUUUCAAUGTT against Elf5,inactive: -0.636
8,GGCCUUUGAUGACUUCAUCTT against Cacna1h,inactive: 0.904
9,GGCCUGAAGAAAAAAACCCTT against Gas6,inactive: -0.55
10,GCUCUUUAUCCUAAUCCGGTT against Mif4gd,inactive: 0.187
11,GCCCAAGUAGCUCUACAGATT against Zbtb3,inactive: 1.39
12,GAUGGUCACCCUGCUGAUUTT against Cmtm7,inactive: 1.48
13,GGCCAGUAAGACAGAUUAUTT against Rabl3,inactive: 0.119
14,GUUACUACAACAGCUACUATT against Krtap19-4,active: -2.37
15,CCUUUGUUCUGCUCUGUUUTT against Tas2r126,inactive: -1.67
16,GGAAAGCUCUUUGUGUCGGTT against Gramd3,inactive: -0.476
17,CCUGAUUUGAAGAACAAAATT against Galnt11,inactive: 1.29
18,GGCCCAUUUUGGUGUGCAUTT against Hyal3,active: -2
19,GUACCUCAUGGGCAAGUUCTT against Foxq1,inactive: 0.579
20,GGCCAGGACCUAAAUACAATT against Tmem231,active: 3.25
21,GGUGUUCAAACUGAUUGGATT against Ckap5,inactive: 1.73
22,GGAUCUGUUCAGCAAGUCUTT against Cpne6,inactive: 1.01

# Part of the list above, bar-delimited.
row | Sequence | z-score
10 | GCUCUUUAUCCUAAUCCGGTT against Mif4gd | inactive: 0.187
11 | GCCCAAGUAGCUCUACAGATT against Zbtb3 | inactive: 1.39
12 | GAUGGUCACCCUGCUGAUUTT against Cmtm7 | inactive: 1.48
13 | GGCCAGUAAGACAGAUUAUTT against Rabl3 | inactive: 0.119
14 | GUUACUACAACAGCUACUATT against Krtap19-4 | active: -2.37

# Continued.

row,Sequence,z-score
1,GGAAUAGGUCUAGCUGUUGTT against Olfr593,inactive: 0.0556
2,GGGACUAGACUUCUUCGGATT against Ddx52,inactive: 0.186
3,GGUGUCCAACAAGCUCAAGTT against F8a,inactive: -0.337
4,GCCACUGUGUGGAAUAAAUTT against Cblif,inactive: 0.727
5,GCAAUAUGGCCUCAGUCUCTT against Trim60,inactive: -0.912
6,UCCUUUCUAAUAUCCUCCATT against Olfr912,inactive: -0.971
7,GCAUCAAGGCAACAAAGAUTT against Spats2l,inactive: 0.522
8,GGCUAUGAUGUUCACAAAUTT against Cog4,inactive: -0.391
9,GGGUUAAUGACUAAAAUGATT against H13,inactive: -1.07
10,GGAUUUUACAUUUCUACACTT against Tmprss15,active: 2.14
11,GGGACUUAGACACAGGAAGTT against Pcdhb15,inactive: -1.17
12,CCCAAGGUGAACAUAAUCUTT against Stard7,inactive: -1.58
13,GGGCCAAGAUACCAAGAGUTT against Spout1,active: -2.71
14,GCAGAUGCUUCGGUGAAAATT against Defb15,inactive: 0.998
15,GCGGAAAGAAUCUUGGGAATT against Bcas1,inactive: 1.07
16,CCUGAUAUUCAAUCUGCACTT against Nelfb,inactive: -0.197
17,CCCUCAUACAGAAUUAGUGTT against Zcchc14,inactive: 0.179
18,GCGAAUCACGCUGAAAGUCTT against Cd274,inactive: -1.06
19,GGUUGUGGAACAAAGAGAATT against Gucy1b1,inactive: -0.446
20,GGAAAAGGUUUAUUUUGCUTT against Mtmr6,inactive: 0.273
21,GGGCCCUGUUUCAAAACUUTT against Tmem161b,inactive: -0.558
22,CGUGUCUGUUCUCGUUCUGTT against Ypel3,inactive: -0.233

row,Sequence,z-score
1,GGUUUCCAGUUAUCUUAAUTT against Glipr1l2,inactive: 1.46
2,GGAAAAGACGGAGAGGCAUTT against Hey1,inactive: -0.399
3,GGCAAUGACUAGAGUAAGATT against Kdm5a,inactive: -1.4
4,GGUCAUCAAGCAGUUUCGCTT against Coq7,inactive: -1.36
5,GGAGAUCUGCUCUAAUUAUTT against Eif1ax,active: 2.21
6,GGAAUCUUUAUCCACAUUCTT against Chst15,inactive: 0.943
7,CCAUCAUGCCCUGUUUGCATT against Cdc42ep3,inactive: 0.393
8,GGUGGUGAUACGUACAGAATT against A2m,inactive: 1.78
9,CCAUAUGGCUUAUCUUAUUTT against Adam5,inactive: 0.138
10,GGAUGCCUAUCACAAGCAGTT against Pacsin1,inactive: -0.478
11,GGCUCACGCUCGUUACCUATT against Nwd1,inactive: -1.86
12,GCUCAUCAAGCUGUACCUATT against Eif2b1,inactive: 1.16
13,GCCACACGUGUGCAAAGAUTT against Zfp524,inactive: 1.51
14,CCCUGGUAUUUCUGUUAUATT against Slc35f6,inactive: -1.5
15,CCUGCCAUAGUUAGUUUUUTT against Khdc1a,active: 7.91
16,GCUCUAAGUUUCCUCAUGGTT against Pkig,inactive: -0.0305
17,GGCAUCUUCGUCUUCAUGCTT against Rnf122,inactive: 0.548
18,GGUCCUAUUUCGGAGCUUUTT against Tnfsf14,inactive: 0.365
19,GCCUUGCAUGACAGUUGUCTT against 2210016L21Rik,inactive: -1.1
20,GGUAUGAUGCACUUUCUGATT against Zhx1,inactive: -1.12
21,GGAAAAGUUCAGAGCUUAUTT against Trmt1l,inactive: -1.99
22,GCCAUAGGAGUGAUUGGAUTT against E130018O15Rik,inactive: -1.66

row,Sequence,z-score
1,CGUGGUGAUUAUGCUUCUATT against Rab37,inactive: -0.00686
2,GCGUGGAGAACCGUUAAUCTT against Shroom3,inactive: 0.845
3,GGUGGACUCUGACAUAACATT against Iigp1,inactive: 1.55
4,CCAACAAUCCGUAUCGACCTT against Tmem202,inactive: 0.384
5,GGAGAGUAUCUGAAGUUUCTT against Jak2,inactive: 1.8
6,GGAGGUAGAGGAGUUGGAGTT against Zyx,inactive: 0.652
7,GCAAGUGACGGUUUAUCUGTT against Las1l,inactive: -1.68
8,GCAUAUUGGAACUACUGGGTT against Olfr986,inactive: 0.245
9,GCCACAGGAUGCUAGCAAATT against Bex2,inactive: 0.282
10,GGCUCACAGUUACCAUCUCTT against Lipe,inactive: -1.2
11,CCUCCACUUACUUUGGGUGTT against Cic,inactive: 0.395
12,GCCACAAGAUACCAUCAGATT against Bex1,inactive: -1.66
13,GGUACACUAUACUUACAUATT against Clec2i,inactive: -0.654
14,CGGAUGCACUUCUCCAAAATT against Tram1,inactive: 0.234
15,GGCAAAAGCGAAGAAUUUATT against E2f5,active: 2.69
16,GGGAACGUACAUUUCUCAATT against Il18r1,inactive: 0.27
17,CCUGAAAGAUCCAGAAGUATT against Dppa5a,inactive: -1.62
18,CCUUAGGAAACGAUCUUCATT against Ints7,inactive: 0.658
19,GCUAAAGCCAAAAACUUACTT against AB124611,inactive: -0.613
20,CGCAUUCCGAUCUACGAGATT against Cartpt,inactive: 0.252
21,GGAAAGCAAAUCAAUGCAATT against Gldn,inactive: 0.841
22,CGAUCCAUGUUGUAAGCGCTT against Adam39,inactive: 0.347

# Some of the entries so far, tab-delimited.
row	Sequence	z-score
5	GGAGAGUAUCUGAAGUUUCTT against Jak2	inactive: 1.8
6	GGAGGUAGAGGAGUUGGAGTT against Zyx	inactive: 0.652

# (next part)

row,Sequence,z-score
1,CCCAAAUCUGGUUCUCAAGTT against A630001O12Rik,inactive: 0.958
2,CGUUCAUGUUGUAAGUAUCTT against Olfr1196,inactive: 0.461
3,GGGACCAGAUAGAAAUUAUTT against Arhgef25,inactive: 0.414
4,GGGCAAGAACAACUCACUUTT against 4933404G15Rik,active: -2.93
5,GGCACCGCUAUUCAGAAUUTT against Fgf23,inactive: 0.755
6,GGAACUCCUUAAUUGAACATT against Gfm2,inactive: 0.154
7,GCCCUCCAACCUCGAUAACTT against Shisa7,active: 2.9
8,GGAAGACACAAGAAACAUCTT against Slc15a5,inactive: -1.49
9,GGGUCAGUCCUGGUUUUAUTT against Sh3bp5l,inactive: 1.27
10,GCCGCUUUAAGAUUCCCACTT against Pde1b,inactive: -0.416
11,GGAACUCUUUCUUCCAUGUTT against Olfr1495,inactive: 0.505
12,CCCGUCCUGCUAAAUGGUGTT against Usp42,inactive: -1.26
13,GGAUGAUGGUGUCUACUCUTT against Fibcd1,inactive: -1.26
14,GCUUUGGUGCACUUGCUUUTT against Akr1c13,active: 2.2
15,CCCUCCUCUGUUGGAUCUUTT against Olfr912,inactive: 0.365
16,UUAAGCCGCUUUUGAAGCUTT against Olfr1200,inactive: 0.812
17,GGAAACUGGAAACAAAACATT against Nat10,inactive: 0.52
18,GGAUCAUGCAGACAUGCUGTT against Ggcx,inactive: -0.278
19,GCAGAUGACCAUUGGUUAATT against 2610301B20Rik,inactive: 0.979

# Reference: PubChem BioAssay AID1508600 (Functional Genomics Laboratory (NCATS/FGL), 2020)
